From US20130023491A1, “BETA-CELL REPLICATION PROMOTING COMPOUNDS AND METHODS OF THEIR USE” (President and Fellows of Harvard College, priority 2009, published 2013)
At least one compound was matched to its structure with a doubt left. Some of these results come from one statement about several compounds together.

System: β-cells (dispersed rat islet cells)
Experiment: primary islet β-cell replication assay (PDX-1/ki-67 co-staining, automated imaging)
Format: cell-based
Procedure: Rat islets were isolated as previously described in Gotoh M, Maki T, Kiyoizumi T, Satomi S, Monaco A P: An improved method for isolation of mouse pancreatic islets. Transplantation 40:437-438, 1985, contents of which are herein incorporated by reference in their entirety. Isolated islets were cultured overnight in a tissue culture incubator. The following morning, islets were trypsinized into cellular clusters of 1-3 cells, re-suspended in islet media (Mediatech 99-786-CV; 10% FBS serum (Valley Biomedial BS3033); 8.3 mM Glucose (Sigma G7528); 1× Penicillin/Streptomycin (Invitrogen 15070-063); 1× Glutamax (Invitrogen 35050-079)) and plated into the wells of a 96-well plate (Sigma CLS3904) that had been coated with 804G (a rat bladder carcinoma cell line) conditioned media. The cellular plating density was 60 k cells/well and greater than 95% viability was confirmed at the time of plating. […] For screening, compounds were tested at 1 uM concentration in duplicate. After 24-hours of compound treatment, cells were fixed with fresh 4% PFA (Electron Microscopy Services 15710) for 20 minutes and washed with PBS (VWR 45000-446). Antigen retrieval was performed by heating the cells to 90 degrees Celsius in 0.1 mM EDTA (Ambion AM9260G) in PBS. […]
Once compound-treated islet cells were stained, β-cell replication was assessed via automated image acquisition and analysis using a Cellomics ArrayScanVTI. […] Second PDX-1 positive cells (selected objects) were counted based upon the average staining intensity within the predicted nuclear area (Note: total signal intensity was essentially equal in quality but was not typically used). Third, the number of PDX-1 positive cells (selected objects) that simultaneously were Ki-67 positive was determined by determining the average fluorescence intensity of ki-67 staining within the predicted nuclear area (again, total intensity was also occasionally used with equal efficacy). The specific thresholds (fluorescence intensities) varied from experiment to experiment. […]

SMILES	increase of the percentage of dividing β-cells above background (after 24 hours)	maximum induction of β-cell replication (dose-response, FIG. 13c)	β-cell replication after treatment with additional ADK-Is (FIG. 17b, 7-Iodo-2,3-dideoxy-7-deazadenosine 20 μM, 10 μM, Aristeromycin 6 μM, 1 μM)
Nc1ncnc2nc(-c3ccc(N4CCOCC4)nc3)cc(-c3cccc(Br)c3)c12 [ABT-702, 5-(3-bromophenyl)-7-(6-morpholinopyridin-3-yl)pyrido[2,3-d]pyrimidin-4-amine]	2-3 fold	2-3 fold	–
Nc1ncnc2c1ncn2[C@@H]1C[C@H](CO)[C@@H](O)[C@H]1O [Aristeromycin, aristeromycin]	–	–	increased
